Test results reported in paper PMC5824958.
No constants are given. Whether binding was seen depends on the method and setting. In cells and extracts the contact can be indirect. These calls come from enrichment with a bait or labelling near it, and not all partners need be listed.

T1: BRI2 (integral membrane protein 2B) (rat (endogenous in brain)) (UniProt Q5XIE8)
T1 sequence: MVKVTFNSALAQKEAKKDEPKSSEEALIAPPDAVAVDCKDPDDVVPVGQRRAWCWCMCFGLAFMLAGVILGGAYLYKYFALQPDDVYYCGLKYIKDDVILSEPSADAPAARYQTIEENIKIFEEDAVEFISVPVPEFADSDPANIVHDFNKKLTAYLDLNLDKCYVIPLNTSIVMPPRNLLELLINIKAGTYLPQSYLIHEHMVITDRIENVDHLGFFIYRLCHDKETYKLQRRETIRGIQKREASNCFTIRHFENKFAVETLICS


Biological target: T1, BRI2 (integral membrane protein 2B) (rat (endogenous in brain))
Experiment: affinity purification with mass spectrometry; mouse anti-BRI2 antibody (N-terminal region) on Dynabeads Protein G; pre-cleared rat cerebral cortex, hippocampus and cerebellum lysates (50 mM Tris-HCl pH 8.0, 120 mM NaCl, 4% CHAPS), overnight at 4 °C; co-precipitated proteins identified by nano-HPLC-MS/MS; hits absent from the two mock IPs or with a PSM ratio >= 2.0

| Binder | binding |
| --- | --- |
| Reticulon-1 (protein, UniProt Q64548 1-777) MAAPPDLQDEPLSPANPGSQLFGGRGEGEEATPKGARPAQQDGEPAWGSGAGAGVVSSRGLCSGPARSPPVAMETASTGVAAVPDALDHSSSPTLKDGEGACYTSLISDICYPPREDSAYFTGILQKENGHITTSESPEELGTPGPSLPEVPGTEPHGLLSSDSGIEMTPAESTEVNKILADPLDQMKAEACKYIDITRPQEAKGQEEQSPGLEDKDLDFKDKDSEVSTKPEGVHAPNQPSPVEGKLIKDNLFEESTFAPYIDELSDEQHRMSLVTAPVKITLTEIGPPVMTATHETIPEKQDLCLKPSPDTVPTVTVSEPEDDSPGSVTPPSSGTEPSAAESQGKGSVSEDELIAAIKEAKGLSYETTESPRPVGQAADRPKVKARSGLPTIPSSLDQEASSAESGDSEIELVSEDPMASEDALPSGYVSFGHVSGPPPSPASPSIQYSILREEREAELDSELIIESCDASSASEESPKREQDSPPMKPGVLDAIREETSSRATEERAPSHQGPVEPDPILSFTPVTLQSRPEPSSGDGAPVPEPPKSQQQKPEEEAVSSSQSPAATEIPGPLGSDLVPPLPFFNKQKAIDLLYWRDIKQTGIVFGSFLLLLFSLTQFSVVSVVAYLALAALSATISFRIYKSVLQAVQKTDEGHPFKAYLELEITLSQEQIQKYTDCLQLYVNSTLKELRRLFLVQDLVDSLKFAVLMWLLTYVGALFNGLTLLLMAVVSMFTLPVVYVKHQAQVDQYLGLVRTHINTVVAKIQAKIPGAKRHAE | binds |
| Secretory carrier-associated membrane protein 5 (protein, UniProt Q9JKE3 1-235) MAEKVNNFPPLPKFIPLKPCFYQDFEADIPPQHLSLTKRLYYLWMLNSVTLAVNLVGCLAWLIGGGGATNFGLAFLWLILFTPCSYVCWFRPIYKAFKTDSSFSFMAFFFTFMAQLVISIIQAVGIPGWGVCGWIATISFFGTNIGSAVVMLIPTVMFTVVAVFSFIALSMVHKFYRGSGGSFSKAQEEWTTGAWKNPHVQQAAQNAAMGAAQGAMNQPQTQYSTTPNYTYSNEM | binds |
| Septin-5 (protein, UniProt Q9JJM9 1-369) MSTGLRYKSKLATPEDKQDIDKQYVGFATLPNQVHRKSVKKGFDFTLMVAGESGLGKSTLVHSLFLTDLYKDRKLLSAEERINQTVEILKHTVDIEEKGVKLKLTIVDTPGFGDAVNNFECWKPITDYVDQQFEQYFRDESGLNRKNIQDNRVHCCLYFISPFGHGLRPVDVGFMKALHEKVNIVPLIAKADCLVPSEIRKLKDRIREEIDKFGIHVYQFPECDSDEDEDFKQQDRELKESAPFAVIGSNTVVEAKGQRVRGRLYPWGIVEVENQAHCDFVKLRNMLIRTHMHDLKDVTCDVHYENYRAHCIQQMTSKLTQDSRMESPIPILPLPTPDSETEKLIRMKDEELRRMQEMLQKMKQRMQDQ | binds |
| Serine/threonine-protein kinase DCLK1 (protein, UniProt O08875 1-433) MLELIEVNGTPGSQLSTPRSGKSPSPSPTSPGSLRKQRISQHGGSSTSLSSTKVCSSMDENDGPGEEESDEGFQIPATITERYKVGRTIGDGNFAVVKECIERSTAREYALKIIKKSKCRGKEHMIQNEVSILRRVKHPNIVLLIEEMDVPTELYLVMELVKGGDLFDAITSTSKYTERDASGMLYNLASAIKYLHSLNIVHRDIKPENLLVYEHQDGSKSLKLGDFGLATIVDGPLYTVCGTPTYVAPEIIAETGYGLKVDIWAAGVITYILLCGFPPFRGSGDDQEVLFDQILMGQVDFPSPYWDNVSDSAKELINMMLLVNVDQRFSAVQVLEHPWVNDDGLPENEHQLSVAGKIKKHFNTGPKPSSTAAGVSVIATTALDKERQVFRRRRNQDVRGRYKAQPAPPELNSESEDYSPSSSETVRSPNSPF | binds |
